Measurements reported in patent US20090203538A1.

T1: ITGA3 (integrin alpha 3) (Homo sapiens (Human)) (UniProt P26006)
T1 sequence: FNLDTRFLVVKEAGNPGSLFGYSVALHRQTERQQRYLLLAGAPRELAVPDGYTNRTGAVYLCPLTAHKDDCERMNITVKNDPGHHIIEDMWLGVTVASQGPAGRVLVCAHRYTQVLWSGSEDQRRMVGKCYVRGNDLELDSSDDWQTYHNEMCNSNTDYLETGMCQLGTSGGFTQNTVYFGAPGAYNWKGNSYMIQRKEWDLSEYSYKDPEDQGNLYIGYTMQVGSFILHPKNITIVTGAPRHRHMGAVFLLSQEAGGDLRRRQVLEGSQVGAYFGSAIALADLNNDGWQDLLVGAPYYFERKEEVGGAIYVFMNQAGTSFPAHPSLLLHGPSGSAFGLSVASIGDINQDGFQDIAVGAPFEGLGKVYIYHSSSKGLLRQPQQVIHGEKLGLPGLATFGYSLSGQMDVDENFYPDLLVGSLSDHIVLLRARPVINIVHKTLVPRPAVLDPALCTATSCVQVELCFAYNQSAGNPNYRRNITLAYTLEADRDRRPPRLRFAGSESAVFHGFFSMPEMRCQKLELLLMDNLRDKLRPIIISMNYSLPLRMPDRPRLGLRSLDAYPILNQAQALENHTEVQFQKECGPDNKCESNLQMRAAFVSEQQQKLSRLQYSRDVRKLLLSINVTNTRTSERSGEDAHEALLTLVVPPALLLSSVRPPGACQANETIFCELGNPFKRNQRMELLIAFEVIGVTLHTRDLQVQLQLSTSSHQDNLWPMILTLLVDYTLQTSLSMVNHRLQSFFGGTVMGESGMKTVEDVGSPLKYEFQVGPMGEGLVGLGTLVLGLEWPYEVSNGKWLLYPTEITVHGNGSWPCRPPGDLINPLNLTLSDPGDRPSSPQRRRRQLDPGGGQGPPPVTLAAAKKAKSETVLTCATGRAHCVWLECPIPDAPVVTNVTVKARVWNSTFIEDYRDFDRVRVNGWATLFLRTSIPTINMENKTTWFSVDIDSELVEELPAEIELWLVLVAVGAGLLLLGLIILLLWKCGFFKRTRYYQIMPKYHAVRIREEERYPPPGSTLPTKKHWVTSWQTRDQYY


Experiments:
[1] = molecular target: T1, ITGA3 (integrin alpha 3) (Homo sapiens (Human)); test: immunoprecipitation from biotin-labelled cell lysate with pp type antibody, mass spectrometry
[2] = molecular target: HER1 (Homo sapiens (Human)); test: as above

Row | binding [1] | binding [2] | Binder
1 | binds | – | 015-003 antibody (antibody, V domains shown) VH: QVQLVQSGAEVKKPGASVKVSCKASGYTFTSYGISWVRQAPGQGLEWMGWISAYNGNTNYAQKLQGRVTMTTDTSTSTAYMELRSLRSDDTAVYYCATAASLKYYYDSSGYYYWGQGTLVTVSR VL: SSELTQDPAVSVALGQTVRITCQGDSLRSYYASWYQQKPGQAPVLVISGKNNRPSGIPDRFSGSSSGDTASLTITGAQAEDEANYYCNSRDSSGYPSWVFGGGTKLTVLG
2 | – | binds | 057-091 antibody (antibody, V domains shown) VH: QVQLVQSGAEVKKTGSSVKVSCKASGGSFSSSAISWVRQAPGHGLEWLGGIIPTFGTPNHAQKFQGRVTITADESTGTAYMELSGLRSEDTAVYYCARAHCGGGRCYDYTDAFHFWGQGTMVTVSR VL: SYELTQPPSVSVAPGKTARITCGGDNIGNRSVHWYQQKPGQAPVLLIYYDSDRPSGIPKRFSGSNSGNTATLTISRVEAGDEADYYCQVWDSTSDHVVFGGGTKLTVLR

Results are given in words; binding and its absence hold for the method and conditions named. In cells and extracts the contact can be indirect. These calls come from enrichment with a bait or labelling near it, and not all partners need be listed.
